A short description of the assay: qHTS Assay for Modulators of Lamin A Splicing. The conditions noted are these: HeLa LMNA splicing GFP/RFP minigene ratio, 48 h. Put shortly:
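S3 HeLa stable clones carrying a lamin A-EGFP splicing minigene plus DsRed2 were seeded at 600 cells/well in Opti-MEM with 2% FBS, pin-dosed and incubated 48 h at 37°C. Acumen cytometry (488 nm) gave the GFP/RFP total-intensity ratio.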
On the technique in general: Quantitative high-throughput screening tests each substance at several concentrations.

[1] abbreviates: measured here: GFP splicing reporter channel.
[2] abbreviates: measured here: RFP viability control channel.

The structures appear in SMILES notation. This is one part of the list. These are further read-outs of the screen, such as a control signal, another cell line or another target. No call is given for them. Compounds called inactive in the main read-out are mostly missing here. Potencies come from curve fits of mixed quality, noted in brackets.

Consider `COc1ccc(N2C(=O)CC(Sc3n[nH]c(-c4ccc(C)cc4)n3)C2=O)cc1` (centres undefined), for which the AC50 under setting [1] is 35.5 µM [falling, single point] and the AC50 under setting [2] is 22.4 µM [falling, single point].

In the case of `COc1nc(SC)nc(Cl)c1Cc1ccc(OC(C)C)cc1`, under setting [2], the AC50 is 35.5 µM [rising, single point]. As for `COc1ccc2nc(Nc3nc(CSc4nc5ccccc5[nH]4)cc(=O)[nH]3)nc(C)c2c1`, the half-maximal activity concentration (AC50) was 35.5 µM [falling, single point] under setting [1] and 31.6 µM [falling, single point] under setting [2]. Turning to `O=C(C1CCCN(S(=O)(=O)c2ccc(F)cc2)C1)N(Cc1cccs1)C1CC1` (centres undefined), the AC50 was 5.62 µM [rising, partial curve] under setting [1] and 15.8 µM [rising, partial curve] under setting [2]. For the molecule `O=C(Nc1nc(-c2ccccn2)cs1)C1COc2ccccc2O1` (centres undefined), under setting [2], the AC50 was 31.6 µM [rising, single point]. Consider `Cc1cccc(NC(=O)c2ccc(COc3ccc(Cl)cc3Cl)o2)n1`, for which the AC50 is 15.8 µM [rising, single point] under setting [1] and 25.1 µM [rising, single point] under setting [2]. With `CCC1CN(C(=O)N2CCC(C(=O)NCc3ccc(N(C)C)cc3)CC2)c2ccccc2O1` (centres undefined), the AC50 was 2.82 µM [rising, full curve, poor fit] under setting [1] and 7.08 µM [rising, partial curve, poor fit] under setting [2].

For `O=C(Nc1ccccc1)Nc1cccc(Cl)c1Cl`, the AC50 by setting is: under setting [1], 5.62 µM [rising, partial curve]; under setting [2], 12.6 µM [rising, partial curve].

With `Cc1cc(N2CCC(C(=O)Nc3ccc(F)cc3)CC2)nc(-c2ccccc2)n1`, the AC50 under setting [2] was 31.6 µM [rising, single point].

For `CCCCC(=O)NCc1nc2cccnc2n1Cc1ccc(OC)cc1`, the AC50 under setting [2] is 0.02 µM [falling, full curve, poor fit].

`Cc1c(C(=O)NCc2ccccc2Cl)sc2nc3n(c(=O)c12)CCCCC3`: the AC50 under setting [2] was 6.31 µM [rising, full curve].

In the case of `Cc1cn2c(=O)cc(COC(=O)c3cccc(NC(=O)c4ccc(C(C)(C)C)cc4)c3)nc2s1`, the AC50 under setting [2] was 11.2 µM [rising, partial curve]. Take `Cc1nn2c(=O)cc(COC(=O)c3cccc(NC(=O)CCc4ccccc4)c3)nc2s1`: the AC50 under setting [2] is 0.0447 µM [falling, full curve]. As to `COc1ccccc1CNC(=O)c1cccc(-c2ccc(C)c3ccccc23)n1`, the AC50 is 11.2 µM [rising, partial curve] under setting [1] and 14.1 µM [rising, partial curve] under setting [2]. On to `c1ccc2sc(SCc3ccc(-c4nnco4)cc3)nc2c1`, for which, under setting [2], the AC50 is 14.1 µM [rising, single point].

With `Cc1ccc(OCC(=O)Nc2cccc(-c3nc4ccccc4s3)c2)cc1`, the AC50 runs as follows: under setting [1], 35.5 µM [falling, single point]; under setting [2], 31.6 µM [falling, partial curve, poor fit]. `Cc1ccc(C(=O)c2coc3ccc(O)c(CN4CCN(C)CC4)c23)cc1`: the AC50 under setting [2] was 35.5 µM [rising, single point]. Turning to `Cc1ccc(C)c(N2CCN(C(=O)c3cc4ccccn4n3)CC2)c1`, the AC50 under setting [2] was 12.6 µM [rising, partial curve, poor fit]. Take `COC(=O)c1ccc(NC(=O)c2ccccc2CC[N+](=O)[O-])cc1`: the half-maximal activity concentration (AC50) reads like this: under setting [1], 11.2 µM [falling, partial curve]; under setting [2], 10 µM [falling, partial curve, poor fit].

Turning to `CCN(c1cccc(C)c1)S(=O)(=O)c1ccc2c(c1)CCN2C(C)=O`, the AC50 runs as follows: under setting [1], 12.6 µM [rising, single point]; under setting [2], 17.8 µM [rising, partial curve]. For `Cc1cc(C(=O)CSc2nnc(N)s2)c(C)n1Cc1cccs1`, the AC50 under setting [2] is 15.8 µM [rising, partial curve]. Turning to `O=C(CNS(=O)(=O)c1ccc(Cl)cc1)N/N=C/c1ccco1`, under setting [1], the AC50 was 0.158 µM [falling, single point]. In the case of `CC1CN(CCCCOc2ccc3ccccc3c2)CC(C)O1` (centres undefined), the AC50 is, setting by setting: under setting [1], 17.8 µM [rising, partial curve, poor fit]; under setting [2], 20 µM [rising, single point]. As to `COCCCn1c(C)nnc1SCC(=O)NCc1ccco1`, the AC50 under setting [1] is 14.1 µM [falling, single point]. On to `O=C(COc1ccccc1)N1CCN(c2nnc(-c3ccccc3)c3ccccc23)CC1`, for which, under setting [2], the AC50 was 22.4 µM [rising, single point]. With `Cc1sc2ncn(CC(=O)NCC3COc4ccccc4O3)c(=O)c2c1S(=O)(=O)N1CCOCC1` (centres undefined), under setting [1], the AC50 is 0.251 µM [rising, full curve, poor fit]. Take `O=C(COc1ccccc1F)Nc1ccc2oc(-c3cccc(Cl)c3)nc2c1`: the AC50 is 10 µM [falling, partial curve] under setting [1] and 10 µM [falling, partial curve] under setting [2]. For the molecule `O=C(CSc1nnc2c(n1)[nH]c1ccccc12)Nc1ccc2c(c1)OCO2`, under setting [2], the AC50 is 14.1 µM [rising, single point]. Regarding `CCOC(=O)C1(C)/C(=N/Nc2cccc(Cl)c2)C(=O)C(=O)N1c1ccccc1` (centres undefined), the AC50 is, setting by setting: under setting [1], 2.51 µM [falling, partial curve, poor fit]; under setting [2], 1.58 µM [falling, partial curve]. With `O=C(CSc1nnc(-c2cnccn2)n1Cc1ccco1)Nc1ccc(Br)cc1`, the AC50 under setting [1] was 15.8 µM [rising, partial curve, poor fit] and the AC50 under setting [2] is 20 µM [rising, single point].

As for `COc1ccc2cc(C3(C)NC(=O)N(CC(=O)NCCC4=CCCCC4)C3=O)ccc2c1` (centres undefined), the AC50 under setting [2] is 11.2 µM [rising, partial curve]. In the case of `Oc1ccccc1/C=N/Nc1cc(N2CCCC2)nc(N2CCCC2)n1`, the AC50 was 35.5 µM [falling, single point] under setting [1] and 35.5 µM [falling, single point] under setting [2]. In the case of `CCOC(=O)c1cc(C(C)C)sc1NC(=O)COC(=O)CCS(=O)(=O)c1ccccc1`, the AC50 under setting [1] was 20 µM [rising, partial curve]. On to `Cc1nc(NS(=O)(=O)c2ccccc2)sc1C(C)(C)C`, for which the AC50 under setting [2] is 12.6 µM [rising, single point].

Broadly, the AC50 is the concentration giving half of the maximal activity seen.

(Values after PubChem BioAssay AID1487 (National Center for Advancing Translational Sciences (NCATS), 2009).)
